This is an account of results in PubChem BioAssay AID256 (DTP/NCI, 2004).

The list does not hold the whole screen: it gathers tests that were run many times, whatever their T/C, doses with no T/C, and many T/C values between a quarter and a half above the control. Further doses and runs are listed elsewhere. T/C is the treated group as % of the vehicle group. Some entries give survivors of the animals treated and no T/C: the source holds a T/C of zero for them, seemingly a mark for toxic or unscored doses. Some doses without a T/C left all or most animals alive at the check, yet need not have been tolerated: survival well below the control is almost never listed, so the zero probably covers shortened survival too. Survivors were counted at the toxicity check, usually on the fifth day, unless a day is given; later deaths do not show. Schedules are NCI's codes, taken here to give the interval after Q, in days (D) or hours (H), and the number of doses after X. Brackets with × say how often a value occurs here. Some doses were run more than once; the results are listed from low to high. Some structures stand for samples that the source files as different forms (salt, stereo form or complex); doses refer to the form tested. Where survival is the endpoint, the PubChem record calls one and a half times the control and up active, and a quarter to a half above the control has no call in these data; cut-offs in other NCI protocols can differ. Some T/C values carry the count of animals alive at the toxicity check (mostly the fifth day); where none is given, no animal had died by that day.

In the assay the test system is CD2F1 mice, L1210 leukemia ip, survival T/C. Briefly: NCI In Vivo Anticancer Drug Screen. Data for tumor model L1210 Leukemia (intraperitoneal) in CD2F1 (CDF1) mice. The following applies: higher T/C = longer survival. The essentials:
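Ratio T/C, where T is the treated-group value and C the vehicle-dosed control value, from mice implanted with a transplantable tumor.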

[1] abbreviates: T/C endpoint: mean survival time, dose: 200.0 mg/kg/injection, schedule: Q01DX009 (ip), vehicle: Klucel (hydroxypropylcellulose) (HPC).
The mark [2] stands for this setting: T/C endpoint: mean survival time, dose: 400.0 mg/kg/injection, schedule: Q04DX003 (ip), vehicle: saline with Tween-80.
Setting [3] is: T/C endpoint: mean survival time, dose: 400.0 mg/kg/injection, schedule: Q01DX009 (ip), vehicle: saline with Tween-80.
The mark [4] stands for this setting: T/C endpoint: mean survival time, dose: 200.0 mg/kg/injection, schedule: Q04DX003 (ip), vehicle: saline with Tween-80.
The mark [5] stands for this setting: T/C endpoint: median survival time, dose: 400.0 mg/kg/injection, schedule: Q01DX005 (ip), vehicle: saline with Tween-80.

Take `O=C(O)C[N-]CC[N-]CC(=O)O.[Cl][Pt+2][Cl]`: the survivor count (T/C endpoint: mean survival time, dose: 100.0 mg/kg/injection, schedule: Q04DX003 (ip), vehicle: other) is given as 8 of 10.

On to `CC(=O)OC1=NC(C)c2c1cc(OC(C)=O)[nH]c2=O` (centres undefined), for which the survivor count under setting [1] is 2 of 6 (2×).

In the case of `CNC/C(C)=C/Br`, the survivor count reads like this: (T/C endpoint: mean survival time, dose: 100.0 mg/kg/injection, schedule: Q01DX009 (ip), vehicle: acetone) 2 of 6; (T/C endpoint: mean survival time, dose: 200.0 mg/kg/injection, schedule: Q01DX009 (ip), vehicle: acetone) 0 of 6; (T/C endpoint: mean survival time, dose: 400.0 mg/kg/injection, schedule: Q04DX003 (ip), vehicle: acetone) 1 of 6.

Regarding `Nc1nc(NC(c2ccc(Cl)cc2)c2ccc(Cl)cc2)c2[nH]cnc2n1`, where the note is “T/C endpoint: mean survival time, dose: 300.0 mg/kg/injection, schedule: Q01DX001 (ip), vehicle: other”, the survivor count is recorded as 0 of 6.

For the molecule `CCOC(=O)c1ncc(Cl)cc1N`, the survivor count by setting is: (T/C endpoint: mean survival time, dose: 100.0 mg/kg/injection, schedule: Q01DX009 (ip), vehicle: Klucel (hydroxypropylcellulose) (HPC)) 1 of 6; under setting [1], 0 of 6.

As for `CCOCc1cc(C)[nH]c(=O)c1C#N`, under setting [2], the survivor count is reported as 2 of 6.

Consider `O=NNc1cnccn1`, for which the T/C runs as follows: (T/C endpoint: median survival time, dose: 17.0 mg/kg/injection, schedule: Q01DX009 (ip), vehicle: water, evaluated on day 30) 133 % of control; (T/C endpoint: median survival time, dose: 17.0 mg/kg/injection, schedule: Q01DX009 (ip), vehicle: water, evaluated on day 60) 145 % of control; (T/C endpoint: median survival time, dose: 24.0 mg/kg/injection, schedule: Q01DX009 (ip), vehicle: water) 129 % of control; (T/C endpoint: median survival time, dose: 25.0 mg/kg/injection, schedule: Q01DX009 (ip), vehicle: water, evaluated on day 22) 155 % of control; (T/C endpoint: median survival time, dose: 25.0 mg/kg/injection, schedule: Q01DX009 (ip), vehicle: water, evaluated on day 30) 136 and 163 % of control; (T/C endpoint: median survival time, dose: 25.0 mg/kg/injection, schedule: Q01DX009 (ip), vehicle: water, evaluated on day 60) 162 % of control. Also, the T/C by setting is: (T/C endpoint: median survival time, dose: 40.0 mg/kg/injection, schedule: Q01DX009 (ip), vehicle: water) 148 % of control; (T/C endpoint: median survival time, dose: 50.0 mg/kg/injection, schedule: Q01DX009 (ip), vehicle: water) 130 % of control; (T/C endpoint: median survival time, dose: 56.0 mg/kg/injection, schedule: Q01DX009 (ip), vehicle: water, evaluated on day 30) 127 % of control; (T/C endpoint: median survival time, dose: 56.0 mg/kg/injection, schedule: Q01DX009 (ip), vehicle: water, evaluated on day 60) 139 % of control.

`N=c1ccn2c(n1)OC1C(O)C(CO)OC12` (centres undefined): the T/C (T/C endpoint: mean survival time, dose: 37.5 mg/kg/injection, schedule: Q01DX005 (ip), vehicle: saline) was 129 % of control; the T/C (T/C endpoint: mean survival time, dose: 50.0 mg/kg/injection, schedule: Q01DX005 (ip), vehicle: saline) is 150, 157, 172, 185, 188 % of control; the T/C (T/C endpoint: mean survival time, dose: 100.0 mg/kg/injection, schedule: Q01DX005 (ip), vehicle: saline) was 164, 168, 175, 207, 227 % of control; the T/C (T/C endpoint: mean survival time, dose: 200.0 mg/kg/injection, schedule: Q01DX005 (ip), vehicle: saline) is 193, 194 (2×), 225, 228 % of control; the T/C (T/C endpoint: mean survival time, dose: 400.0 mg/kg/injection, schedule: Q01DX005 (ip), vehicle: saline) was 155 [5 of 6 alive], 195, 213, 239, 276 % of control; the T/C (T/C endpoint: median survival time, dose: 300.0 mg/kg/injection, schedule: Q01DX009 (ip), vehicle: water) is 127 % of control. For the same molecule, the T/C (T/C endpoint: median survival time, dose: 400.0 mg/kg/injection, schedule: Q01DX009 (ip), vehicle: water) is 147 % of control.

For the molecule `Cc1ccccc1SCCC(=O)O`, the survivor count reads like this: (T/C endpoint: mean survival time, dose: 200.0 mg/kg/injection, schedule: Q01DX009 (ip), vehicle: saline with Tween-80) 0 of 6; under setting [3], 0 of 6.

With `COc1cc2c(cc1OC)C(Cc1ccccc1)=NCC2`, the survivor count (T/C endpoint: mean survival time, dose: 200.0 mg/kg/injection, schedule: Q01DX009 (ip), vehicle: saline sonified) was 1 of 6 and the survivor count under setting [2] is recorded as 0 of 6.

Regarding `CC1(C)C(CC(=O)O)CC1C(=O)O` (centres undefined), under setting [3], the survivor count is recorded as 3 of 6.

On to `CCN(CC)CCCC(C)NCCCCNC(C)CCCN(CC)CC` (centres undefined), for which the survivor count by setting is: (T/C endpoint: mean survival time, dose: 50.0 mg/kg/injection, schedule: Q01DX009 (ip), vehicle: water) 2 of 6; (T/C endpoint: mean survival time, dose: 100.0 mg/kg/injection, schedule: Q01DX009 (ip), vehicle: water) 0 of 6; (T/C endpoint: mean survival time, dose: 200.0 mg/kg/injection, schedule: Q01DX009 (ip), vehicle: water) 0 of 6.

Consider `COC(=O)c1cccc(C)c1O`, for which the survivor count under setting [3] is listed as 0 of 6.

`CCC(=O)N(N=O)c1ccccc1`: the survivor count is listed as 0 of 6 (T/C endpoint: mean survival time, dose: 100.0 mg/kg/injection, schedule: Q01DX001 (ip), vehicle: saline); 0 of 6 (T/C endpoint: mean survival time, dose: 200.0 mg/kg/injection, schedule: Q01DX001 (ip), vehicle: saline); 0 of 6 (T/C endpoint: mean survival time, dose: 400.0 mg/kg/injection, schedule: Q01DX001 (ip), vehicle: saline).

As to `CCC[CH2][Sn]([CH2]CCC)([CH2]CCC)[CH2]CC(=O)OC`, the survivor count under setting [2] is recorded as 4 of 6.

Take `CCOc1ccccc1C1N(C)CCCN1C`: the survivor count is, setting by setting: (T/C endpoint: mean survival time, dose: 100.0 mg/kg/injection, schedule: Q04DX003 (ip), vehicle: saline with Tween-80) 0 of 6; under setting [4], 0 of 6; under setting [2], 0 of 6.

`O=C(Nc1ccc(F)cc1)c1ccc(C(=O)Nc2ccc(F)cc2)cc1`: the survivor count under setting [4] is on record as 6 of 6.

As to `CCCCCCCCCCCCCC[N+](C)(C)Cc1cc(=O)c(O)co1`, the survivor count reads like this: under setting [4], 0 of 3; under setting [2], 0 of 3.

Take `OC1OCC(COc2ccc(Cl)cc2)OC1O` (centres undefined): the T/C under setting [5] was 130 % of control. Also, the survivor count is, setting by setting: (T/C endpoint: median survival time, dose: 666.0 mg/kg/injection, schedule: Q01DX005 (ip), vehicle: saline with Tween-80) 1 of 6; (T/C endpoint: median survival time, dose: 1111.0 mg/kg/injection, schedule: Q01DX005 (ip), vehicle: saline with Tween-80) 0 of 6.

With `COc1cc(C2CC(C)(O)Oc3cc4c(cc32)OCO4)cc(OC)c1OC` (centres undefined), the T/C (T/C endpoint: median survival time, dose: 86.4 mg/kg/injection, schedule: Q01DX005 (ip), vehicle: saline with Tween-80) is 132 % of control; the T/C (T/C endpoint: median survival time, dose: 144.0 mg/kg/injection, schedule: Q01DX005 (ip), vehicle: saline with Tween-80) was 131 % of control [5 of 6 alive]; the T/C (T/C endpoint: median survival time, dose: 240.0 mg/kg/injection, schedule: Q01DX005 (ip), vehicle: saline with Tween-80) was 146 % of control [4 of 6 alive]; the T/C under setting [5] was 144 % of control [4 of 6 alive]. In addition, the survivor count by setting is: under setting [5], 0 of 6 and 3 of 6; (T/C endpoint: median survival time, dose: 666.67 mg/kg/injection, schedule: Q01DX005 (ip), vehicle: saline with Tween-80) 2 of 6; (T/C endpoint: median survival time, dose: 667.0 mg/kg/injection, schedule: Q01DX005 (ip), vehicle: saline with Tween-80) 0 of 6.

Take `CC(=O)/C(N=O)=C(/C)O`: the survivor count (T/C endpoint: mean survival time, dose: 100.0 mg/kg/injection, schedule: Q01DX001 (ip), vehicle: saline with Tween-80) is recorded as 6 of 6.

For the molecule `CC1=C(N2CC2C)C(=O)c2c(COC(N)=O)c3n(c2C1=O)CC1NC31` (centres undefined), the T/C (T/C endpoint: mean survival time, dose: 40.0 mg/kg/injection, schedule: Q01DX001 (ip), vehicle: distilled water + Tween-80) is 140 % of control. Moreover, the survivor count (T/C endpoint: mean survival time, dose: 80.0 mg/kg/injection, schedule: Q01DX001 (ip), vehicle: distilled water + Tween-80) is 5 of 6.

With `CC1(C)CCC23CCC4(C)C(CCC5C6(C)CCC(O)C(C)(C)C6CCC54C)C2C1OC3=O` (centres undefined), the survivor count reads like this: (T/C endpoint: mean survival time, dose: 50.0 mg/kg/injection, schedule: Q04DX002 (ip), vehicle: saline with Tween-80) 3 of 3; (T/C endpoint: mean survival time, dose: 100.0 mg/kg/injection, schedule: Q04DX002 (ip), vehicle: saline with Tween-80) 3 of 3.

On to `Cc1ccc(Nc2nc(N)nc3c2ncn3C2OC(CO)C(O)C2O)cc1` (centres undefined), for which the survivor count (T/C endpoint: mean survival time, dose: 200.0 mg/kg/injection, schedule: Q01DX005 (ip), vehicle: distilled water + Tween-80) is recorded as 1 of 6.

`CSC(=NC#N)N(C)C`: the survivor count reads like this: (T/C endpoint: mean survival time, dose: 100.0 mg/kg/injection, schedule: Q04DX003 (ip), vehicle: saline sonified) 3 of 6; (T/C endpoint: mean survival time, dose: 200.0 mg/kg/injection, schedule: Q01DX001 (ip), vehicle: saline with Tween-80) 0 of 6; (T/C endpoint: mean survival time, dose: 400.0 mg/kg/injection, schedule: Q01DX001 (ip), vehicle: saline with Tween-80) 0 of 6.
